## Percent effect of library compounds

Measurements from “University of Dundee, Small-Polar-MMV Screening Library” (2021), ChEMBL document CHEMBL3988442.

Mtb glucose medium: 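Growth of Mycobacterium tuberculosis over 3 days (7H9 medium with glucose and tyloxapol); the read-out is not stated. Compounds at 50 µM. The record gives no direction; compounds that gave an IC50 in retests scored well above the rest, so higher reads as more growth inhibition. About 69,000 compounds were tested under these conditions; 1.1% (about 760) showed 50% or more at least once.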
Mtb cholesterol medium: 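Phenotypic screen: M. tuberculosis growth, cholesterol and DPPC medium, 4 days; the read-out is not stated. Concentration: 50 µM. Higher reads as more growth inhibition (inferred: compounds with an IC50 in retests scored well above the rest). Of about 69,000 compounds tested this way, about 370 (0.54%) reached 50% or more in at least one test.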

The filed quantity is “Percent Effect” (%).
How 0% and 100% were set is not recorded. Most values in the screen are low, and negative values occur.
The compounds are a random part of those screened.
Two or more numbers in one place are separate tests of the same structure; such repeats can differ widely.

With Cc1ccsc1C(=O)N1CC(C(=O)N2CCOCC2)C2(CCOCC2)C1 (centres undefined) the screen gave Mtb glucose medium: -23.4%; Mtb cholesterol medium: -15.89%.
With COc1cc(-c2cnnc(NCCSC)n2)cc(OC)c1OC the screen gave Mtb glucose medium: 8.184%; Mtb cholesterol medium: -9.105% & -3.001%.
With O=C(O)C(F)(F)F.O=C(O)C(F)(F)F.[H][C@@]12C[C@@H](Oc3ccccc3)CN1CCN(Cc1nccn1C)C2 the screen gave Mtb glucose medium: -31.9% & -3.12%; Mtb cholesterol medium: -9.196%.
With O=C(Nc1nnc[nH]1)C(c1cccc(F)c1)N1CCOCC1 (centres undefined) the screen gave Mtb glucose medium: 15.46%; Mtb cholesterol medium: -11.65% & 5.429%.
With OC1CCN(c2ccc(CNc3nc4ccccc4s3)cc2F)CC1 the screen gave Mtb glucose medium: 14.79%; Mtb cholesterol medium: 9.015%.
With OCCC1CN(c2nc(-c3cccnc3)nc3c2CCNCC3)CCO1 (centres undefined) the screen gave Mtb glucose medium: 1.978%; Mtb cholesterol medium: 0.04291% & -3.944%.
With CC(O)CN1CCN(C(=O)c2cccn2Cc2ccccc2)CC1 (centres undefined) the screen gave Mtb glucose medium: -9.789%; Mtb cholesterol medium: 10.75%.
With CC(C)CN1CCC2(C=C(C(=O)N(C)C)c3ccccc32)CC1.O=C(O)C(F)(F)F the screen gave Mtb glucose medium: -3.984%; Mtb cholesterol medium: -12.63%.
With c1cnn(CCNCc2csc(-c3ccc4c(c3)OCO4)n2)c1 the screen gave Mtb glucose medium: 23.99%; Mtb cholesterol medium: 26.84%.
With COCCn1ccnc1C1CCN(C(=O)c2cccc(COC)n2)CC1 the screen gave Mtb glucose medium: 1.747%; Mtb cholesterol medium: 10.31%.
With c1cc(-c2c[nH]c([C@@H]3COCCN3Cc3csnn3)n2)ccn1 the screen gave Mtb glucose medium: -22.42% & -3.936%; Mtb cholesterol medium: -11.38%.
With CCOC(=O)NCCNC(=O)c1cc2ccccc2nc1N1CCCC1 the screen gave Mtb glucose medium: 10.7%; Mtb cholesterol medium: 12.19%.
With Cc1csc(N2CCCN(C(=O)c3csc(C)n3)CC2)n1 the screen gave Mtb glucose medium: 4.825%; Mtb cholesterol medium: 13.69%.
With Cc1n[nH]c(C)c1CNC(=O)CSCc1ccccc1Cl the screen gave Mtb glucose medium: -9.77%; Mtb cholesterol medium: -4.752%.
With N#CCc1ccc(OCC(=O)NS(=O)(=O)c2ccc(Cl)s2)cc1 the screen gave Mtb glucose medium: -0.4747% & 17.57%; Mtb cholesterol medium: -4.77%.
With COc1ccccc1N1CCN(Cc2nc(C)c(C)o2)CC1 the screen gave Mtb glucose medium: 15.72%; Mtb cholesterol medium: -6.932%.
With COC(=O)C(C)(C)S(=O)(=O)c1ccc(Br)cc1 the screen gave Mtb glucose medium: -15.89%; Mtb cholesterol medium: 2.665%.
With COCCNC(=O)Cn1nc(C(C)C)c2cnn(C(C)(C)C)c2c1=O the screen gave Mtb glucose medium: 3.776% & 6.11%; Mtb cholesterol medium: -15.13%.
With CCc1nnnn1Cc1csc(N(C)C(C)=O)n1 the screen gave Mtb glucose medium: 12.11%; Mtb cholesterol medium: -0.1992%.
With O=C(O)C1(n2ccnc2)CCN(Cc2cc3ccccc3o2)CC1 the screen gave Mtb glucose medium: -8.531%; Mtb cholesterol medium: 2.552%.
With CN(C)c1nc(N)nc(CN2CCCC(c3ccccc3)CC2)n1 (centres undefined) the screen gave Mtb glucose medium: 33.72% & 40.82%; Mtb cholesterol medium: 10.18%.
With [H][C@]12CCN(C(=O)C3CCCO3)CC[C@@]1([H])S(=O)(=O)N(Cc1ccccc1)C2 (some centres undefined) the screen gave Mtb glucose medium: 9.611% & -0.01461%; Mtb cholesterol medium: 13.45%.
With Cl.Cl.Cl.c1cncc(CNc2ccc3nc(C4CCNCC4)nn3c2)c1 the screen gave Mtb glucose medium: -0.7061%; Mtb cholesterol medium: -15.78%.
With O=C(C1CCCO1)N1CCc2ncnc(NC3CCC3)c2CC1.O=C(O)C(F)(F)F (centres undefined) the screen gave Mtb glucose medium: -25.72%; Mtb cholesterol medium: 1.856% & -1.841%.
With COCC(=O)N(CCC(=O)OC)CC1CCCO1 (centres undefined) the screen gave Mtb glucose medium: -6.202% & -51.5%; Mtb cholesterol medium: -19.76%.

Some entries from above, unchanged:

SMILES,Mtb glucose medium,Mtb cholesterol medium
O=C(O)C(F)(F)F.O=C(O)C(F)(F)F.[H][C@@]12C[C@@H](Oc3ccccc3)CN1CCN(Cc1nccn1C)C2,-31.9 & -3.12,-9.196
CC(O)CN1CCN(C(=O)c2cccn2Cc2ccccc2)CC1 (centres undefined),-9.789,10.75
OCCC1CN(c2nc(-c3cccnc3)nc3c2CCNCC3)CCO1 (centres undefined),1.978,0.04291 & -3.944